Compound in the test: Cc1cc(ccc1-c1ccccc1)C(=O)N1CCCN(CC1)C(=O)CCl [compound 10]
The experiment in a line: probe-labelled cysteine peptide fold change vs DMSO (competition) (log2 fold change); higher = less target engagement (more negative = stronger competition). The note with it: THP-1, incubation time: 4 h.

Sequences of proteins named here, by UniProt entry; tags and fusion partners are left off. A change or cut given only in a name is not applied to a line headed by its entry.
UniProt O95071: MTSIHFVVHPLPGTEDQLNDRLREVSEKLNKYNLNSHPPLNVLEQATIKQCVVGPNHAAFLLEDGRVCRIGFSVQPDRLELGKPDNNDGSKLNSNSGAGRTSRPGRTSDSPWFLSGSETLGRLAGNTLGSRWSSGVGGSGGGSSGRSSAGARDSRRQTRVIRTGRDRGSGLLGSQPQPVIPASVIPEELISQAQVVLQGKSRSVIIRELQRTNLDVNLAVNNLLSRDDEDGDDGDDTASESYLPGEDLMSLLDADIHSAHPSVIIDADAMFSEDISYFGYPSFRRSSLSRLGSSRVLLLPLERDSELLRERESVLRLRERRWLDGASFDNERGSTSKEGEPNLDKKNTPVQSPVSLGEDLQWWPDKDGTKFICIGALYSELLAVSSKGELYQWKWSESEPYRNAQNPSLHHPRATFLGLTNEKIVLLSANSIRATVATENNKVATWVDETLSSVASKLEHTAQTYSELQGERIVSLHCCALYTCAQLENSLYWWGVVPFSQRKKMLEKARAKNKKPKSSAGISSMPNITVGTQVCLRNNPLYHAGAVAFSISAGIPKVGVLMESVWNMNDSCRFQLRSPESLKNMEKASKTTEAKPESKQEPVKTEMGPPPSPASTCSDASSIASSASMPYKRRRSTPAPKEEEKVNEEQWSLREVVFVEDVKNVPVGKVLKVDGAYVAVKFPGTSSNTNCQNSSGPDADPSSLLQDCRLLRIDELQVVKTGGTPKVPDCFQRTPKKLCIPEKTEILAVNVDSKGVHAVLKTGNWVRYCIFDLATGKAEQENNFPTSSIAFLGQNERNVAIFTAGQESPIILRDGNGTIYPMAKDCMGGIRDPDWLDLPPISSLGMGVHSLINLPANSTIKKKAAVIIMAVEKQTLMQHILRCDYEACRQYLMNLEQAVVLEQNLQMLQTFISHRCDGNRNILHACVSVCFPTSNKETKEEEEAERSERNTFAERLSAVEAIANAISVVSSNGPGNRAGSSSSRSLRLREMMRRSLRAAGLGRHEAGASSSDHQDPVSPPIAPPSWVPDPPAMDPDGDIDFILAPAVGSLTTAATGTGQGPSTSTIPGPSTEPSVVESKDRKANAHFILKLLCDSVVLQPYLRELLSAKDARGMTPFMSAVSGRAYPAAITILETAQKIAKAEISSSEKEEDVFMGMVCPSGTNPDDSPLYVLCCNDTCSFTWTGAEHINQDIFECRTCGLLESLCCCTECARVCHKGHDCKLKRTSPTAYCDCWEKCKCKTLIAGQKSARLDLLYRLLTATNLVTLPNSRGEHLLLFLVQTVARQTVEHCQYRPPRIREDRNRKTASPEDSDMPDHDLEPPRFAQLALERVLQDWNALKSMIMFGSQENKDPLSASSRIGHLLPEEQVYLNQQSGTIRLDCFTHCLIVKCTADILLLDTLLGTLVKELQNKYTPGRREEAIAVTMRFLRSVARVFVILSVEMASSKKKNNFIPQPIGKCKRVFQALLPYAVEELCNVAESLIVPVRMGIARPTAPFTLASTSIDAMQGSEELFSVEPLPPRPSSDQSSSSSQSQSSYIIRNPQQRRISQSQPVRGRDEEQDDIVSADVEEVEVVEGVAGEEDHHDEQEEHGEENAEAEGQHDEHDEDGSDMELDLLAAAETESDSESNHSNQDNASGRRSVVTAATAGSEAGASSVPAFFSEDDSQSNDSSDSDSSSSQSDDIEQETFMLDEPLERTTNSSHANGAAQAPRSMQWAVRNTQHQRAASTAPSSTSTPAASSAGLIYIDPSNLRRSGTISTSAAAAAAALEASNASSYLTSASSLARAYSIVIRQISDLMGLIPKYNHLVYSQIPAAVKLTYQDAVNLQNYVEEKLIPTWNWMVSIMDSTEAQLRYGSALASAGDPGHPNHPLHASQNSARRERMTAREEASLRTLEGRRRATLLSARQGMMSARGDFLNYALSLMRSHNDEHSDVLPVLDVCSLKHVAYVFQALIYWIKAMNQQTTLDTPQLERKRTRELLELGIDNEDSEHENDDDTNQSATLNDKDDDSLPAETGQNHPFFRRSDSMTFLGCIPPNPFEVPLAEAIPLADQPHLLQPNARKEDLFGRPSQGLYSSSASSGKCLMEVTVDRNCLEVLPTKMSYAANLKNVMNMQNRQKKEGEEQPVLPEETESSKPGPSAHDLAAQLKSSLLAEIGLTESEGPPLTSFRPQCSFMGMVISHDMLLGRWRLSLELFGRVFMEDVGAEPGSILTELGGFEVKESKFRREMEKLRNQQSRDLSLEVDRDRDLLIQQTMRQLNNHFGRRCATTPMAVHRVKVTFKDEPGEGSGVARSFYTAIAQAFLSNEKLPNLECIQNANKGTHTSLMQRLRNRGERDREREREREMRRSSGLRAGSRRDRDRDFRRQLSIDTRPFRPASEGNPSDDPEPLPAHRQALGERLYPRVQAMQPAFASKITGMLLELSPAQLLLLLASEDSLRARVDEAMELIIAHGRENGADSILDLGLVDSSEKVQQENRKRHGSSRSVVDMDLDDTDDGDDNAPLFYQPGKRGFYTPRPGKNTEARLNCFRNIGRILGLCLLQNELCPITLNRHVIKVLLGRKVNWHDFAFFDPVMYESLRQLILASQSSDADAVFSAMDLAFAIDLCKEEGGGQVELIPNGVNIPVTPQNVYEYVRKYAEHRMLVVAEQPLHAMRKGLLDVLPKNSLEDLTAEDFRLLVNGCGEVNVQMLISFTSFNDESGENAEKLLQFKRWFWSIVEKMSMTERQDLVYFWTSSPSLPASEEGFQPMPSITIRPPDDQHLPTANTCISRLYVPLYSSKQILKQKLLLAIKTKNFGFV
UniProt O14933: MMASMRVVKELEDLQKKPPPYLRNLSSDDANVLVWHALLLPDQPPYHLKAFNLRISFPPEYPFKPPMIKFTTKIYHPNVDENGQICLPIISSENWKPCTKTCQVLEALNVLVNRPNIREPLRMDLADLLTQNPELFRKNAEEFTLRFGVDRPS
UniProt Q8IWV7: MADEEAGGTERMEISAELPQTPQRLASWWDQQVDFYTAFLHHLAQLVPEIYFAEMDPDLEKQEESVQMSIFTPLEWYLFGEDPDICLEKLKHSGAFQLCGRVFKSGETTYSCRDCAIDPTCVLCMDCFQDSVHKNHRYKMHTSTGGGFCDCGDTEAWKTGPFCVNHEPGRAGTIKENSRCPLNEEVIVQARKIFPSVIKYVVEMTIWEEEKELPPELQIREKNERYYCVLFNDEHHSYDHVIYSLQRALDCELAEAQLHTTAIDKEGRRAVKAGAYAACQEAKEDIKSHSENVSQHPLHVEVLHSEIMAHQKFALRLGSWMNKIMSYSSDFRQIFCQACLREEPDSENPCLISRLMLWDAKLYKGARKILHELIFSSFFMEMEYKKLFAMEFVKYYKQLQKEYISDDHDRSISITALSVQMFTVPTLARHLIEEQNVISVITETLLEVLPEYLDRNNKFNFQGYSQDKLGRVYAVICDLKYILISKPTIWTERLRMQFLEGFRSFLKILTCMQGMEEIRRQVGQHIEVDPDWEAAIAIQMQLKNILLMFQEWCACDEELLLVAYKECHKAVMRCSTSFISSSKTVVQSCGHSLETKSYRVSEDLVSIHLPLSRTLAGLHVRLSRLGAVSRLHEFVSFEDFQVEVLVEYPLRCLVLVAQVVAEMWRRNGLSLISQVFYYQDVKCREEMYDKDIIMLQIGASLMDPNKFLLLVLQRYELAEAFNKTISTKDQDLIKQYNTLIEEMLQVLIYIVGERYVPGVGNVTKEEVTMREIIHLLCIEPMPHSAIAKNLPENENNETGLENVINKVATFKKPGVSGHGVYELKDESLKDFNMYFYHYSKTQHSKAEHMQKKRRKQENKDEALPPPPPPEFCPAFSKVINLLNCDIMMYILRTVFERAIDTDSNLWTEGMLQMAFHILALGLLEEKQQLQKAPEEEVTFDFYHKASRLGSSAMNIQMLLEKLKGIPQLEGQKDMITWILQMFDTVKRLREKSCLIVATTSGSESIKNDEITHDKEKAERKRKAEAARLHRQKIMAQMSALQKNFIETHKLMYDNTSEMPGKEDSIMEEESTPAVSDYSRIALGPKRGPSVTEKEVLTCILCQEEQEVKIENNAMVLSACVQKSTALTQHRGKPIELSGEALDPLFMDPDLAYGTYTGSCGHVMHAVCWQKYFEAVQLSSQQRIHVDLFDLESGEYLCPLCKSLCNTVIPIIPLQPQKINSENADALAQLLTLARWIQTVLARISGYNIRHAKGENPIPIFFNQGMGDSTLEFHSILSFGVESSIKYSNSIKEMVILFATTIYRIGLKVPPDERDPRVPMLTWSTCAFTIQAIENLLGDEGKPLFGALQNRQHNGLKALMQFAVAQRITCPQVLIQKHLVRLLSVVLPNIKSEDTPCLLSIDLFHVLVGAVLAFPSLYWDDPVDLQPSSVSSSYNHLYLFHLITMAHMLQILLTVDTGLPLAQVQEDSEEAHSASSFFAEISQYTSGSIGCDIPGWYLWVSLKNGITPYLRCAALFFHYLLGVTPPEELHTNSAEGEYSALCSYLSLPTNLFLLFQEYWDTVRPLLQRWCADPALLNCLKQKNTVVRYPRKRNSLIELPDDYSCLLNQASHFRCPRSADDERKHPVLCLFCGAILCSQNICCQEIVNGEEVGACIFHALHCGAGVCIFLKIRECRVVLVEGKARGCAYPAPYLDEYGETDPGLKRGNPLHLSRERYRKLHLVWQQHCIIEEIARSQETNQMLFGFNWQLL
UniProt Q05086: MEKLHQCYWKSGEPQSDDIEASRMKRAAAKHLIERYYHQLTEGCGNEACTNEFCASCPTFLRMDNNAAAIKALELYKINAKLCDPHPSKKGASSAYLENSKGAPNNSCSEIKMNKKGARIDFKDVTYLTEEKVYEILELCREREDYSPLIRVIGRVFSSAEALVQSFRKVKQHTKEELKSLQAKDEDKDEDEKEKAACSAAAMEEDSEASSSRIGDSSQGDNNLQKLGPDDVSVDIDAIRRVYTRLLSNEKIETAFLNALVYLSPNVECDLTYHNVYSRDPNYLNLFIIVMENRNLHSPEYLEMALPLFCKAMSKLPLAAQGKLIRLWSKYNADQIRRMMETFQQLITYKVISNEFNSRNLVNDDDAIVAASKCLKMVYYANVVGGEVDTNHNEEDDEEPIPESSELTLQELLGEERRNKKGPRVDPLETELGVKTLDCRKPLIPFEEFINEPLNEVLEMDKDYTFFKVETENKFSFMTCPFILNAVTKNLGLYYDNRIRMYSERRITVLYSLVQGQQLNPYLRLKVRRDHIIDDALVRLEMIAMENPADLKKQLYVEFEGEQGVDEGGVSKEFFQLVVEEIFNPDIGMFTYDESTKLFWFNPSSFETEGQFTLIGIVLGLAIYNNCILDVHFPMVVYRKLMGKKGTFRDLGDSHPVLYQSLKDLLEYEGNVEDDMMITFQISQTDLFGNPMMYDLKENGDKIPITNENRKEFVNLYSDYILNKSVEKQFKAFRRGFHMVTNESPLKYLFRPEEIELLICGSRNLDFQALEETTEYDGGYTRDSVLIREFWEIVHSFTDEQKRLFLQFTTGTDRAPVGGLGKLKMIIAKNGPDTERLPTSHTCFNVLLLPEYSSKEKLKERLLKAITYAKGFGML
UniProt P41226: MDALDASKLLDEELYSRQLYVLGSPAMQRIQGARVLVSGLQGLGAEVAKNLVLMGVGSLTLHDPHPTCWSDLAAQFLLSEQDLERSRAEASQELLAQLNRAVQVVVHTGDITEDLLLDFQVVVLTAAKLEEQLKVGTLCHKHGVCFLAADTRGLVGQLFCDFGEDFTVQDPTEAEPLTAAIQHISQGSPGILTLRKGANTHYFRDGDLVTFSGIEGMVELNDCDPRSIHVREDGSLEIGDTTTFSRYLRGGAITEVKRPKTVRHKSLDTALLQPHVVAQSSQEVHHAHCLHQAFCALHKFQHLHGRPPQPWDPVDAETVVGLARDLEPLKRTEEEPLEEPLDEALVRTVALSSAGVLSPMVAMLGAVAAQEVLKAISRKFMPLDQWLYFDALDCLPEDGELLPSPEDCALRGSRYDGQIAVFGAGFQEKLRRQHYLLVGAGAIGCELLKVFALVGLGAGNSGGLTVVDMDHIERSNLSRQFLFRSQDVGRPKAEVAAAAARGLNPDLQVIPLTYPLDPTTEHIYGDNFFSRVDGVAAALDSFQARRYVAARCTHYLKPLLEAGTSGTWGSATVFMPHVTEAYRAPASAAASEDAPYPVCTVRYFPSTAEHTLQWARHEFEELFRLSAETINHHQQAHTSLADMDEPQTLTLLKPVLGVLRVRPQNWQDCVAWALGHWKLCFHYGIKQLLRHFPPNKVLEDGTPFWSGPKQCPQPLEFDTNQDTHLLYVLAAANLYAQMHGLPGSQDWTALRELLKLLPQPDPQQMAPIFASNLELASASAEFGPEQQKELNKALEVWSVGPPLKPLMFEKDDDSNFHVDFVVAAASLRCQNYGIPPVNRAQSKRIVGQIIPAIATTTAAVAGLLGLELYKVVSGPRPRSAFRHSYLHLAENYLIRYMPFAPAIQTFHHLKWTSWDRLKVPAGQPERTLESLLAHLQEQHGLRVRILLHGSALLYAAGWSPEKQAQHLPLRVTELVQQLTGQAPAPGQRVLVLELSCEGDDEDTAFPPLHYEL

This is one part of the list.
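Also: competitive profiling in live THP-1 cells: cysteine peptides tagged with an iodoacetamide desthiobiotin (IA-DTB) probe, intensity after compound treatment relative to DMSO-treated cells.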

In the case of “UBR2_Q8IWV8_837_GMYELKPECAK (UniProt Q8IWV8)”, the “probe-labelled cysteine peptide fold change” value was -0.143 (10 µM) and -0.148 (50 µM).
In the case of “UBE4B_O95155_448_MCSQPAVSQLLSNIR (UniProt O95155)”, the “probe-labelled cysteine peptide fold change” value runs as follows: (10 µM) -0.215; (50 µM) -0.184.
For UBA6_A0AVT1_721_ALQLLHCFPLDIR the same measures were 0.0248 and 0.215.
For “UBE3C_Q15386_252_ILLENVLKPLHFTYNSCPEGAR (UniProt Q15386)”, the “probe-labelled cysteine peptide fold change” value reads like this: (10 µM) -0.189; (50 µM) -0.0816.
Take “UACA_Q9BZF9_125_LLQYNCPTEHADLQGR (UniProt Q9BZF9)”: the “probe-labelled cysteine peptide fold change” value runs as follows: (10 µM) -0.133; (50 µM) -0.0499.
“UBL5_Q9BZL1_18_CNTDDTIGDLK (UniProt Q9BZL1)”: the “probe-labelled cysteine peptide fold change” value was 0.202 (10 µM) and -0.104 (50 µM).
As to “UBR5_O95071_2094_NCLEVLPTK (UniProt O95071)”, the “probe-labelled cysteine peptide fold change” value (10 µM) was -0.311 and the “probe-labelled cysteine peptide fold change” value (50 µM) was -0.989.
For “UBE2L6_O14933_98_IYHPNVDENGQICLPIISSENWKPCTK (UniProt O14933)”, the “probe-labelled cysteine peptide fold change” value reads like this: (10 µM) -0.284; (50 µM) -0.676.
Taken in the same sequence, the figures for “U2SURP_O15042_65_ESLCDSPHQNLSR (UniProt O15042)” were 0.224 and 0.0744.
Take “UBE2O_Q9C0C9_585_SNDLFPVHHLDNNEFCPGDFVVDKR (UniProt Q9C0C9)”: the “probe-labelled cysteine peptide fold change” value is -0.0569 (10 µM) and -0.183 (50 µM).
For “UBE2L6_O14933_102_TCQVLEALNVLVNRPNIREPLR (UniProt O14933)” the same measures were -0.369 and -0.301.
“TYK2_P29597_402_CLELSLPSR (UniProt P29597)”: the “probe-labelled cysteine peptide fold change” value by setting is: (10 µM) 0.229; (50 µM) -0.142.
“UBR1_Q8IWV7_1726_LHLVWQQHCIIEEIAR (UniProt Q8IWV7)”: the “probe-labelled cysteine peptide fold change” value is -0.0158 (10 µM) and -0.128 (50 µM).
For “UBE3A_Q05086_843_NGPDTERLPTSHTCFNVLLLPEYSSK (UniProt Q05086)”, the “probe-labelled cysteine peptide fold change” value runs as follows: (10 µM) -0.114; (50 µM) -0.368.
For “UBE2V1_Q13404_71_IECGPKYPEAPPFVR (UniProt Q13404)” the same measures were -0.0157 and -0.607.
With “TYMP_P19971_138_VSLVLAPALAACGCK (UniProt P19971)”, the “probe-labelled cysteine peptide fold change” value by setting is: (10 µM) 0.124; (50 µM) -0.31.
“UBAP2L_Q14157_68+75_NQDECVIALHDCNGDVNR (UniProt Q14157)”: the “probe-labelled cysteine peptide fold change” value is 0.12 (10 µM) and -0.158 (50 µM).
“UBASH3B_Q8TF42_468_LVGEALLESNTIIDHVYCSPSLR (UniProt Q8TF42)”: the “probe-labelled cysteine peptide fold change” value came out at 0.035 (10 µM) and 0.0786 (50 µM).
Turning to “UBA7_P41226_223_DGDLVTFSGIEGMVELNDCDPR (UniProt P41226)”, the “probe-labelled cysteine peptide fold change” value was found to be 0.0341 (10 µM) and 0.101 (50 µM).
As for “UBE2E1_P51965_122+131_IYHCNINSQGVICLDILK (UniProt P51965)”, the “probe-labelled cysteine peptide fold change” value (10 µM) is -0.13 and the “probe-labelled cysteine peptide fold change” value (50 µM) was 0.433.
For “TXNL1_O43396_64_YPQAVFLEVDVHQCQGTAATNNISATPTFLFFR (UniProt O43396)”, the “probe-labelled cysteine peptide fold change” value reads like this: (10 µM) -0.078; (50 µM) 0.154.
With UBA6_A0AVT1_449_ACIGDTLCQK, the “probe-labelled cysteine peptide fold change” value runs as follows: (10 µM) -0.0646; (50 µM) 0.113.
For the target “UBE4B_O95155_534_ECSLDSDYFK (UniProt O95155)”, the “probe-labelled cysteine peptide fold change” value runs as follows: (10 µM) -0.0831; (50 µM) 0.0927.
Consider “UBR1_Q8IWV7_1197_IHVDLFDLESGEYLCPLCK (UniProt Q8IWV7)”, for which the “probe-labelled cysteine peptide fold change” value by setting is: (10 µM) -0.181; (50 µM) -0.0944.
For “UBE3A_Q05086_83_LCDPHPSK (UniProt Q05086)”, the “probe-labelled cysteine peptide fold change” value runs as follows: (10 µM) 0.02; (50 µM) -0.108.
Regarding “UBASH3B_Q8TF42_240_LGCDWVATIFSR (UniProt Q8TF42)”, the “probe-labelled cysteine peptide fold change” value reads like this: (10 µM) 0.204; (50 µM) 0.257.
Regarding “TYK2_P29597_435_LTADSSHYLCHEVAPPR (UniProt P29597)”, the “probe-labelled cysteine peptide fold change” value (10 µM) worked out at 0.0552 and the “probe-labelled cysteine peptide fold change” value (50 µM) was -0.0151.
As to “UBA3_Q8TBC4_28_MAVDGGCGDTGDWEGR (UniProt Q8TBC4)”, the “probe-labelled cysteine peptide fold change” value is -0.245 (10 µM) and -0.0349 (50 µM).
With UBL5_Q9BZL1_6_IEVVCNDR (UniProt Q9BZL1), the “probe-labelled cysteine peptide fold change” value reads like this: (10 µM) 0.0345; (50 µM) -0.229.
Take “U2AF2_P26368_442_IFVEFTSVFDCQK (UniProt P26368)”: the “probe-labelled cysteine peptide fold change” value (10 µM) worked out at 0.0266 and the “probe-labelled cysteine peptide fold change” value (50 µM) stood at 0.118.
Consider “UBA52_P62987_115_CGHTNNLRPK (UniProt P62987)”, for which the “probe-labelled cysteine peptide fold change” value is, setting by setting: (10 µM) -0.0567; (50 µM) -0.125.
With “UBE3D_Q7Z6J8_330_VLYQPCIK (UniProt Q7Z6J8)”, the “probe-labelled cysteine peptide fold change” value runs as follows: (10 µM) -0.0259; (50 µM) -0.056.
Taken in the same sequence, the figures for “UAP1L1_Q3KQV9_254_GVEFVHVYCVDNILVR (UniProt Q3KQV9)” were 0.119 and 0.12.
“UBA2_Q9UBT2_30_VLVVGAGGIGCELLK (UniProt Q9UBT2)”: the “probe-labelled cysteine peptide fold change” value reads like this: (10 µM) 0.11; (50 µM) 0.0878.
Take “UBR5_O95071_691_FPGTSSNTNCQNSSGPDADPSSLLQDCR (UniProt O95071)”: the “probe-labelled cysteine peptide fold change” value reads like this: (10 µM) -0.000612; (50 µM) -0.405.
As to “UBR7_Q8N806_137_YNDNFFGLYCICK (UniProt Q8N806)”, the “probe-labelled cysteine peptide fold change” value runs as follows: (10 µM) 0.0481; (50 µM) -0.0777.
For “UBA7_P41226_829_CQNYGIPPVNR (UniProt P41226)” the same measures were -0.03 and 0.153.
For “UBE2I_P63279_75+93_CKFEPPLFHPNVYPSGTVCLSILEEDK (UniProt P63279)” the same measures were -0.171 and -0.0829.
Take “UBA1_P22314_1040_ALVLELCCNDESGEDVEVPYVR (UniProt P22314)”: the “probe-labelled cysteine peptide fold change” value runs as follows: (10 µM) 0.0912; (50 µM) 0.0492.

The values are drawn from the supplement of paper PMC12067093, “Discovery and optimisation of a covalent ligand for TRIM25 and its application to targeted protein ubiquitination” (Chemical Science, 2025).
